Data published in the supplement of paper PMC10849652.
The list shows a part of the results.

By UniProt entry, the sequences of proteins in these tests, tags left out. Where a name states a change or a piece, a line headed by the entry shows the natural chain unless it says otherwise.
UniProt P52657, whole entry, looked up: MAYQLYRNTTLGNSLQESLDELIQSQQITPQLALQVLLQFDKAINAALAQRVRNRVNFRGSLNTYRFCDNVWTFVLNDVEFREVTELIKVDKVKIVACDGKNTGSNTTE
UniProt P14317: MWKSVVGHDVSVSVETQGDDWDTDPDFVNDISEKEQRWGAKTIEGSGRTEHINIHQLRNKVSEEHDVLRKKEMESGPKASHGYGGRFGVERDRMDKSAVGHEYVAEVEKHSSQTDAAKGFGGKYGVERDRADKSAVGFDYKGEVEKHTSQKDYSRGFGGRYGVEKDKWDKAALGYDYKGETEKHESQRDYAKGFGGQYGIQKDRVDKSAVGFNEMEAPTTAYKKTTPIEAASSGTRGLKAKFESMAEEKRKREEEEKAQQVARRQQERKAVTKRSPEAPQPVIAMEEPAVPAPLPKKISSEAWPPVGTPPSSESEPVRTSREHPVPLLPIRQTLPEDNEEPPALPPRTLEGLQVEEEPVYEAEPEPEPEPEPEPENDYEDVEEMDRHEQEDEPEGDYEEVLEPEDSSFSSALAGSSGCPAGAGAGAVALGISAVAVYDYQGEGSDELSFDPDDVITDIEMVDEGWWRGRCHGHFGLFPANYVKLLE
UniProt Q9Y4H4: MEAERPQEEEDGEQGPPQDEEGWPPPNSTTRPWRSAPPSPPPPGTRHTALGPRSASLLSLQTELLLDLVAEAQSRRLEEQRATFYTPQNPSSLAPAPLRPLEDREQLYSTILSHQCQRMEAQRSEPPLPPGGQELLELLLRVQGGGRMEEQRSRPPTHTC
UniProt P43250, whole entry, looked up: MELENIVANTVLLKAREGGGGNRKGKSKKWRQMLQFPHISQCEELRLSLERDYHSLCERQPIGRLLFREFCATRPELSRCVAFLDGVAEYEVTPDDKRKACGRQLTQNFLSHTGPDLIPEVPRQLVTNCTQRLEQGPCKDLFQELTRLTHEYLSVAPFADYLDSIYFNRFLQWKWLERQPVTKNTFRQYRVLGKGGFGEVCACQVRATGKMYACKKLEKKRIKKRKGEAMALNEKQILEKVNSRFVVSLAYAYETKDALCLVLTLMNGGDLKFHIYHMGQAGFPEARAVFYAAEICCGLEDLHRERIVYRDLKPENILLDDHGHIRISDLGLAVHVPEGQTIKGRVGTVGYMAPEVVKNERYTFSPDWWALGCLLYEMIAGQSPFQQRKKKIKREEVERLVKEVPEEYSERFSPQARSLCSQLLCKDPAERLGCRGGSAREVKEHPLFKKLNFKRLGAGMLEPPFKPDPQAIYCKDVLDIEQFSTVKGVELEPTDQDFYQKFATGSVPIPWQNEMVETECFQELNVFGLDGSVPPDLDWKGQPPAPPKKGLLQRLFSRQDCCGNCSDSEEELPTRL
UniProt Q8WW33: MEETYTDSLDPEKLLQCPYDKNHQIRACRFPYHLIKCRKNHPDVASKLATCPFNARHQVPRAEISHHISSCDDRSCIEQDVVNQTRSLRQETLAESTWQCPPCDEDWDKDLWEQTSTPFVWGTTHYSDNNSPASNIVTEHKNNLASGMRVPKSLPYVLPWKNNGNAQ
UniProt Q6PII5: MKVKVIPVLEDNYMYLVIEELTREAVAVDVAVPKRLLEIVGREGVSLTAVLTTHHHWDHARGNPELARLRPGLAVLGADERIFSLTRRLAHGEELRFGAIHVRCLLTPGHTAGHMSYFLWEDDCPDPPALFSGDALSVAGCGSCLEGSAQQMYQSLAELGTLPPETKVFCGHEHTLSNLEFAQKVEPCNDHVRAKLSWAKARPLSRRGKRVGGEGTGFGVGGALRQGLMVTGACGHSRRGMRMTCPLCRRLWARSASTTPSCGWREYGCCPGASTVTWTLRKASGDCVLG
UniProt P69905, whole entry, looked up: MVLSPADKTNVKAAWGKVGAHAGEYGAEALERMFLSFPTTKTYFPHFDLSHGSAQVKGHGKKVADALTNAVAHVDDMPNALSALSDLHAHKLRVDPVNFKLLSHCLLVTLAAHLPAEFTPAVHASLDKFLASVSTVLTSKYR
UniProt Q8TAA5: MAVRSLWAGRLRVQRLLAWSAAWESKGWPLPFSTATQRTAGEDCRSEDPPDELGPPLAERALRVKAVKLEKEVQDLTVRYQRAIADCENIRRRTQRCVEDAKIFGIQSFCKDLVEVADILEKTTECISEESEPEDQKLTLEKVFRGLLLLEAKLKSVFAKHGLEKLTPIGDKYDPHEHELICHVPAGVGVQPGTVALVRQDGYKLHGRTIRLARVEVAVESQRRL
UniProt P49840: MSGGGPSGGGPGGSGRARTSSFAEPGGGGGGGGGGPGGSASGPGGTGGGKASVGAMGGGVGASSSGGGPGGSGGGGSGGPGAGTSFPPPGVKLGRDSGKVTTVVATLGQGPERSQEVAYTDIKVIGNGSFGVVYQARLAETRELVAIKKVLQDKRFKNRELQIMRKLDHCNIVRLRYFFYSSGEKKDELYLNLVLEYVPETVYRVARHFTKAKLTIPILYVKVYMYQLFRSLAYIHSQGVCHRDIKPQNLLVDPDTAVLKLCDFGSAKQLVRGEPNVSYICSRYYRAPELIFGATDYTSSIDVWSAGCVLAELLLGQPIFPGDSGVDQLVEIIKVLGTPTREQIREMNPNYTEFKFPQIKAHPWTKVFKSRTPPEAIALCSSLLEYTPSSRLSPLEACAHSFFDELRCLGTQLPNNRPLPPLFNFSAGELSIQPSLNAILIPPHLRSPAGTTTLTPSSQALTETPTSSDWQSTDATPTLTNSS
UniProt P06396, whole entry, looked up: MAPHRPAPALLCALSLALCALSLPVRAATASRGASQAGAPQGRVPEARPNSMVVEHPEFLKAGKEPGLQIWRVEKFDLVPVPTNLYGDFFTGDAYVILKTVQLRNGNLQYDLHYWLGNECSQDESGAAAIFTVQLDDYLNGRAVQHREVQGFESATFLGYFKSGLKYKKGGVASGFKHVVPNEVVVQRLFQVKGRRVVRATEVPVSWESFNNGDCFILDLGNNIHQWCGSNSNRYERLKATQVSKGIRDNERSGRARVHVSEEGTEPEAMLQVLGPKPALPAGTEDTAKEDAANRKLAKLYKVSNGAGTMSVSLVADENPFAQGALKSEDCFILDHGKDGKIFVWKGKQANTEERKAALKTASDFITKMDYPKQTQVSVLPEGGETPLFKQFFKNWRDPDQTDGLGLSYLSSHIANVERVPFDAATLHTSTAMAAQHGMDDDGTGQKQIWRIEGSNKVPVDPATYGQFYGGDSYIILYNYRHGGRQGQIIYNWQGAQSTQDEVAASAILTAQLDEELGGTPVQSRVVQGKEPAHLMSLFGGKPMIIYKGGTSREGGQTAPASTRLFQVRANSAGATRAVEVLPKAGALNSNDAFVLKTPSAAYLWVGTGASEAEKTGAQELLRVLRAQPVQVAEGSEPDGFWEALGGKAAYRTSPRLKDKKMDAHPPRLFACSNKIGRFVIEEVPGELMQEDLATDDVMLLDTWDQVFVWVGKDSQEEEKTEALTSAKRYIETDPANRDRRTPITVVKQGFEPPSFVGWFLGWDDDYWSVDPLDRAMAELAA
UniProt P35269, whole entry, looked up: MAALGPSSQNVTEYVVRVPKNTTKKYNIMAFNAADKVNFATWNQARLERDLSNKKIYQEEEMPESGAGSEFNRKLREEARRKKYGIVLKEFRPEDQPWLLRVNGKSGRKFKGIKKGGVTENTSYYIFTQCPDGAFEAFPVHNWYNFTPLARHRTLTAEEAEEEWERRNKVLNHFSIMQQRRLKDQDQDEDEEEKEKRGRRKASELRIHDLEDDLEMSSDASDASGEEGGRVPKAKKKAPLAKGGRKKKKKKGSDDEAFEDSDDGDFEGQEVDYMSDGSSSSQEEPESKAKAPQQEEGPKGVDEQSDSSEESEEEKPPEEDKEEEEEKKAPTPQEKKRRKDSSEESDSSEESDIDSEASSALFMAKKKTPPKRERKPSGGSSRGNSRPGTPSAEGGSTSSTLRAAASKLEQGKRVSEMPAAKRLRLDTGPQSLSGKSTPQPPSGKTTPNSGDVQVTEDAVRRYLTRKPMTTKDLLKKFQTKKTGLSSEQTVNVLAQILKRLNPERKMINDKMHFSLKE
UniProt Q03013: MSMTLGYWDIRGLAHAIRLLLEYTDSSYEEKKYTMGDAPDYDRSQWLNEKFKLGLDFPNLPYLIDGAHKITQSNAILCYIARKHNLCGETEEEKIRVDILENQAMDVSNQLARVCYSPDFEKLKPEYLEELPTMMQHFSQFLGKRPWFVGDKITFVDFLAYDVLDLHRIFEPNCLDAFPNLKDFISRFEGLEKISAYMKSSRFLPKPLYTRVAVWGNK
UniProt Q9UQL6: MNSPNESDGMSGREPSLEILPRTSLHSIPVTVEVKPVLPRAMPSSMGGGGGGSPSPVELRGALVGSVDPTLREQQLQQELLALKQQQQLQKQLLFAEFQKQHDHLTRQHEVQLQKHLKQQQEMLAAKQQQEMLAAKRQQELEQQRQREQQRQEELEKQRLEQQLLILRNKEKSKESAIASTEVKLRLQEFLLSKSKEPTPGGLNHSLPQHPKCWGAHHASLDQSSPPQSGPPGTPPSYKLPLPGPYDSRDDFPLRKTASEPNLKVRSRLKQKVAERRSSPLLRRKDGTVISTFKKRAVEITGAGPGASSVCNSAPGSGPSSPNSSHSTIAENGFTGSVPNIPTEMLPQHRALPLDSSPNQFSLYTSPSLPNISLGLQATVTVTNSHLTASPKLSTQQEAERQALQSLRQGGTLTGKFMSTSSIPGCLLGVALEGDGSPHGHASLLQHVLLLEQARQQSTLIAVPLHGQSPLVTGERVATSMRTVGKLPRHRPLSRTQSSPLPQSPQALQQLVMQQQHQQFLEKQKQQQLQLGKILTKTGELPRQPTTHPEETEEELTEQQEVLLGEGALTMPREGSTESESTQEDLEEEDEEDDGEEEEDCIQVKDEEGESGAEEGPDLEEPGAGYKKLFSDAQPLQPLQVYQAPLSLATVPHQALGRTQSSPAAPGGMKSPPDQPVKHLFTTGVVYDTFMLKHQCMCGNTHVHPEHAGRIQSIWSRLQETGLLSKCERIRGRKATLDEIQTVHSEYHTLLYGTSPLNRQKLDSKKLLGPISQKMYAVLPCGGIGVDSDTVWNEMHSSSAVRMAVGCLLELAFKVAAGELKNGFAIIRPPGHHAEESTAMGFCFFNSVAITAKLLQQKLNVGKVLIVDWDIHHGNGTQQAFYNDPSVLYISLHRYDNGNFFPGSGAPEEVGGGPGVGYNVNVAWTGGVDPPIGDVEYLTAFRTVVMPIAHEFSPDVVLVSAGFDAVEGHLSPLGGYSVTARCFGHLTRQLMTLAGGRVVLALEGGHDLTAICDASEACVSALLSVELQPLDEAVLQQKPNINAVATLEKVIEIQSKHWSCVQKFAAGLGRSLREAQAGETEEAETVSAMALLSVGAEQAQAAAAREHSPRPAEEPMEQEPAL
UniProt P07305, whole entry, looked up: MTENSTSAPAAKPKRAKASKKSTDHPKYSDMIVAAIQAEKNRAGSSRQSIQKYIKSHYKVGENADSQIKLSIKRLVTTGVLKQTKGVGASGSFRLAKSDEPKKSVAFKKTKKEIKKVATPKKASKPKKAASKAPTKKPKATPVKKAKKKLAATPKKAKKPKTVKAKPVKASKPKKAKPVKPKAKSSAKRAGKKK
UniProt O14929: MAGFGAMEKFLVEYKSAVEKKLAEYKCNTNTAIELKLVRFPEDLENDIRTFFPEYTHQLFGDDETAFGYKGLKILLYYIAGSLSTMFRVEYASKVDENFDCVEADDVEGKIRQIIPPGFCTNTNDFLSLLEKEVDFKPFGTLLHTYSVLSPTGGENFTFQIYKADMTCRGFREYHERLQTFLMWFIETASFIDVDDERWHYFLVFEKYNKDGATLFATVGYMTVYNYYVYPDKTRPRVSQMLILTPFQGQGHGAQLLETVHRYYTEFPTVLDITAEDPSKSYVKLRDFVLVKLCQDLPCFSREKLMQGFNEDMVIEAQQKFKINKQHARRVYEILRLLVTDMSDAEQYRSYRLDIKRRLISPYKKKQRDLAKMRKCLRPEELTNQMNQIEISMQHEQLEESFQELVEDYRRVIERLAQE
UniProt P48637: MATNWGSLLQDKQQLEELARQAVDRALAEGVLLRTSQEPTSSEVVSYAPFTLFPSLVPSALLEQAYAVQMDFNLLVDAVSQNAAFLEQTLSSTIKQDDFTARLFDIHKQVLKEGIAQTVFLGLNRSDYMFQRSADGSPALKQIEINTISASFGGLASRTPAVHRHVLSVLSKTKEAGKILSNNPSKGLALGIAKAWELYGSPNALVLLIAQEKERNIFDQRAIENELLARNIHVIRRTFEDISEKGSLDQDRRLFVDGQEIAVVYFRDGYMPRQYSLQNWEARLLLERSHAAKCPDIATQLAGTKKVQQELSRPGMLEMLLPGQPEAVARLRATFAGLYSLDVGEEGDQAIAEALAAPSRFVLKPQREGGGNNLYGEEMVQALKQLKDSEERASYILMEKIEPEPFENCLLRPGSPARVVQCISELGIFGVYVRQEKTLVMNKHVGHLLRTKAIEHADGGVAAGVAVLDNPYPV

How the values were obtained:
Assay in all cases: log2 fold change, soluble protein after heating vs DMSO (PISA); higher = thermal stabilisation; K562 lysate, 10 uM; active = over 0.2 and 3.5 SD of the protein, either way, in both replicates (recomputed)
nilotinib = compound: Cc1cn(-c2cc(NC(=O)c3ccc(C)c(Nc4nccc(-c5cccnc5)n4)c3)cc(C(F)(F)F)c2)cn1 [nilotinib]
Method in brief: (§1)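 Soluble protein was defined as the supernatant remaining after 21,000xg for 90 min, following pooling of heated aliquots and adjustment to 0.5% NP-40 at 4°C. Before that, crude K562 extract at 1 mg/mL protein in PBS pH 7.4 with 1 mM MgCl2 was treated with 10 μM compound for 30 min and heated for 3 min across 48°C-58°C. Quantification used TMTpro 16plex LC-MS/MS with channel sums equalised, and values are log-two fold changes in thermal stability relative to solvent controls from duplicates.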

[1] = compound: Cc1nc(Nc2n[nH]c3c2CN(C(=O)N[C@H](CN(C)C)c2ccccc2)C3(C)C)c2sccc2n1
Method in brief: as §1

dasatinib = compound: Cc1nc(Nc2ncc(C(=O)Nc3c(C)cccc3Cl)s2)cc(N2CCN(CCO)CC2)n1 [dasatinib]
Method in brief: as §1

[2] = compound: Cc1ncc(-c2ccnc(Nc3ccc(S(C)(=O)=O)cc3)n2)n1C(C)C
Method in brief: as §1

[3] = compound: Cn1cc(-c2ccc3c(c2)CCN3C(=O)Cc2cccc(C(F)(F)F)c2)c2c(N)ncnc21
Method in brief: as §1

quisinostat = compound: Cn1cc(CNCC2CCN(c3ncc(C(=O)NO)cn3)CC2)c2ccccc21 [quisinostat]
Method in brief: as §1

tipifarnib = compound: Cn1cncc1[C@@](N)(c1ccc(Cl)cc1)c1ccc2c(c1)c(-c1cccc(Cl)c1)cc(=O)n2C [tipifarnib]
Method in brief: as §1

[4] = compound: NC(=O)Nc1cc(-c2cccc(F)c2)sc1C(=O)N[C@H]1CCCNC1
Method in brief: as §1

[5] = compound: NC(=O)c1cnc(N[C@@H]2CCCC[C@@H]2N)nc1Nc1cccc(-n2nccn2)c1
Method in brief: as §1

[6] = compound: NC1(c2ccc(-c3nc4ccn5c(=O)[nH]nc5c4cc3-c3ccccc3)cc2)CCC1
Method in brief: as §1

Row | Target | log2 fold change (nilotinib) | log2 fold change [1] | log2 fold change (dasatinib) | log2 fold change [2] | log2 fold change [3] | log2 fold change (quisinostat) | log2 fold change (tipifarnib) | log2 fold change [4] | log2 fold change [5] | log2 fold change [6]
1 | HACL1 (UniProt Q9UJ83) | inactive: 0.073 | inactive: 0.029 | inactive: 0.023 | inactive: 0.014 | inactive: -0.004 | inactive: -0.018 | inactive: -0.008 | inactive: 0.003 | inactive: 0.006 | inactive: 0.019
2 | GTF2A2 (UniProt P52657) | inactive: -0.023 | inactive: 0.08 | inactive: -0.005 | inactive: 0 | inactive: -0.016 | inactive: 0.022 | inactive: -0.003 | inactive: -0.039 | inactive: -0.021 | inactive: -0.033
3 | UniProt H0YHG0 | inactive: 0.004 | inactive: 0.026 | inactive: 0.035 | inactive: 0.004 | inactive: -0.003 | inactive: 0.005 | inactive: 0.022 | inactive: -0.022 | inactive: -0.006 | inactive: 0.006
4 | GTPBP1 (UniProt O00178) | inactive: 0.018 | inactive: -0.004 | inactive: -0.029 | inactive: 0.005 | inactive: -0.009 | inactive: 0.059 | inactive: -0.008 | inactive: -0.011 | inactive: 0.012 | inactive: -0.018
5 | GSE1 (UniProt Q14687) | inactive: -0.017 | inactive: 0.007 | inactive: -0.064 | inactive: 0.036 | inactive: -0.005 | inactive: -0.093 | inactive: -0.02 | inactive: 0.059 | inactive: 0.012 | inactive: 0.029
6 | HCLS1 (UniProt P14317) | inactive: -0.022 | inactive: 0.006 | inactive: 0.022 | inactive: 0.006 | inactive: 0.018 | inactive: 0.044 | inactive: 0.022 | inactive: -0.036 | inactive: -0.016 | inactive: 0.043
7 | GPSM3 (UniProt Q9Y4H4) | inactive: 0.142 | inactive: 0.004 | inactive: -0.261 | inactive: -0.012 | inactive: 0.003 | inactive: -0.092 | inactive: 0.174 | inactive: -0.003 | inactive: 0.166 | inactive: -0.07
8 | GTPBP4 (UniProt Q9BZE4) | inactive: 0.029 | inactive: 0.008 | inactive: -0.009 | inactive: -0.015 | inactive: -0.004 | inactive: -0.03 | inactive: -0.003 | inactive: 0.029 | inactive: -0.005 | inactive: -0.007
9 | GRK6 isoform 2 (UniProt P43250) | inactive: -0.024 | inactive: 0.094 | inactive: 0.023 | inactive: 0.005 | inactive: -0.014 | inactive: -0.043 | inactive: 0 | inactive: 0.012 | inactive: 0.028 | inactive: -0.097
10 | GTSF1 (UniProt Q8WW33) | inactive: 0.035 | inactive: -0.003 | inactive: 0.022 | inactive: -0.016 | inactive: -0.107 | inactive: 0.007 | inactive: 0.009 | inactive: -0.031 | inactive: -0.036 | inactive: 0.001
11 | HAGHL isoform 2 (UniProt Q6PII5) | inactive: -0.009 | inactive: 0.05 | inactive: 0.018 | inactive: 0.014 | inactive: 0.042 | inactive: 0.049 | inactive: 0.035 | inactive: -0.011 | inactive: 0.013 | inactive: -0.066
12 | HBA1 (UniProt P69905) | inactive: 0.08 | inactive: 0.02 | inactive: 0.024 | inactive: 0.123 | inactive: 0.006 | inactive: 0.018 | inactive: 0.03 | inactive: -0.056 | inactive: -0.052 | inactive: -0.012
13 | GRPEL2 (UniProt Q8TAA5) | inactive: 0.033 | inactive: 0.035 | inactive: 0.025 | inactive: -0.09 | inactive: 0.024 | inactive: -0.037 | inactive: -0.104 | inactive: 0.031 | inactive: 0.213 | inactive: 0.039
14 | HDAC2 (UniProt Q92769) | inactive: -0.022 | inactive: 0.014 | inactive: -0.024 | inactive: -0.013 | inactive: 0.044 | active: 0.635 | inactive: -0.011 | inactive: 0.018 | inactive: 0.001 | inactive: -0.031
15 | HAX1 (UniProt O00165) | inactive: 0.003 | inactive: -0.059 | inactive: -0.104 | inactive: -0.015 | inactive: 0.081 | inactive: -0.012 | inactive: -0.097 | inactive: 0.013 | inactive: -0.004 | inactive: -0.012
16 | GSK3A (UniProt P49840) | inactive: 0.026 | inactive: 0.425 | inactive: 0.021 | active: 0.562 | inactive: 0.048 | inactive: -0.009 | inactive: -0.008 | inactive: -0.024 | inactive: 0.099 | inactive: -0.006
17 | HDAC10 (UniProt Q969S8) | inactive: -0.009 | inactive: 0.023 | inactive: -0.104 | inactive: 0.032 | inactive: 0.144 | inactive: 0.245 | inactive: -0.123 | inactive: 0.092 | inactive: 0.111 | inactive: -0.001

Row | Target | log2 fold change (nilotinib) | log2 fold change [1] | log2 fold change (dasatinib) | log2 fold change [2] | log2 fold change [3] | log2 fold change (quisinostat) | log2 fold change (tipifarnib) | log2 fold change [4] | log2 fold change [5] | log2 fold change [6]
18 | GSN (UniProt P06396) | inactive: 0.009 | inactive: -0.007 | inactive: -0.009 | inactive: -0.018 | inactive: 0.01 | inactive: -0.006 | inactive: -0.011 | inactive: 0.014 | inactive: 0.012 | inactive: 0.009
19 | GTF2F1 (UniProt P35269) | inactive: 0.013 | inactive: -0.032 | inactive: 0.046 | inactive: -0.02 | inactive: -0.024 | inactive: 0.029 | inactive: 0.005 | inactive: -0.021 | inactive: -0.005 | inactive: 0.017
20 | GSTM4 (UniProt Q03013) | inactive: -0.163 | inactive: 0.019 | inactive: -0.047 | inactive: 0.054 | inactive: 0.118 | inactive: 0.163 | inactive: 0.008 | inactive: -0.003 | inactive: 0.024 | inactive: -0.032
21 | HDAC5 isoform 3 (UniProt Q9UQL6) | inactive: -0.058 | inactive: -0.008 | inactive: -0.015 | inactive: -0.12 | inactive: 0.064 | inactive: -0.029 | inactive: -0.012 | inactive: 0.017 | inactive: -0.056 | inactive: 0.033
22 | H3-2 (UniProt Q5TEC6) |  |  | inactive: 0.014 |  | inactive: -0.383 | inactive: -0.113 |  | inactive: -0.048 |  | 
23 | H1-0 (UniProt P07305) |  |  | inactive: 0.064 |  | inactive: 0.006 | inactive: -0.126 |  | inactive: 0.019 |  | 
24 | HAT1 (UniProt O14929) | inactive: -0.009 | inactive: 0.033 | inactive: 0.001 | inactive: 0.027 | inactive: 0.01 | inactive: -0.041 | inactive: -0.007 | inactive: 0.008 | inactive: 0.004 | inactive: -0.015
25 | GRK5 (UniProt P34947) | inactive: -0.137 | inactive: -0.022 |  | inactive: -0.085 |  |  | inactive: 0.2 |  |  | inactive: -0.021
26 | GREB1 (UniProt Q4ZG55) |  |  |  |  |  | inactive: -0.509 |  | inactive: 0.214 |  | inactive: -0.171
27 | GSDMD (UniProt P57764) |  |  |  |  |  | inactive: 0.098 |  | inactive: -0.074 |  | 
28 | GRIPAP1 isoform 2 (UniProt Q4V328) |  |  |  |  |  | inactive: 0.094 |  | inactive: 0.121 |  | 
29 | HDAC3 (UniProt E7ESJ6) |  |  |  |  |  |  |  |  | inactive: 0.058 | 
30 | GRM5 (UniProt P41594) | inactive: -0.078 | inactive: 0.023 | inactive: -0.109 | inactive: 0.145 | inactive: 0.043 |  | inactive: 0.116 |  | inactive: -0.11 | inactive: -0.065
31 | HBD (UniProt E9PEW8) |  |  |  |  |  | inactive: -0.046 |  | inactive: 0.053 | inactive: -0.071 | 
32 | HCFC2 (UniProt Q9Y5Z7) |  |  |  |  |  | inactive: -0.004 |  | inactive: -0.064 |  | 
33 | HBZ, A0A494C057 | inactive: -0.059 | inactive: 0.032 |  | inactive: 0.122 |  |  | inactive: 0.149 |  | inactive: -0.131 | 
34 | GSS (UniProt P48637) | inactive: 0.001 | inactive: -0.003 | inactive: 0.03 | inactive: -0.033 | inactive: 0.017 | inactive: 0.031 | inactive: -0.011 | inactive: -0.015 | inactive: -0.009 | inactive: 0.006

An excerpt of these results, in markdown.

| Row | Target | log2 fold change (nilotinib) | log2 fold change [1] | log2 fold change (dasatinib) | log2 fold change [2] | log2 fold change [3] | log2 fold change (quisinostat) | log2 fold change (tipifarnib) | log2 fold change [4] | log2 fold change [5] | log2 fold change [6] |
| --- | --- | --- | --- | --- | --- | --- | --- | --- | --- | --- | --- |
| 23 | H1-0 (UniProt P07305) |  |  | inactive: 0.064 |  | inactive: 0.006 | inactive: -0.126 |  | inactive: 0.019 |  |  |
| 29 | HDAC3 (UniProt E7ESJ6) |  |  |  |  |  |  |  |  | inactive: 0.058 |  |
